Results as given in PMC7862700.
Only a part is listed here, and it is no random draw. At the low end of the ranking the order means little.

Sequences of proteins named here, by UniProt entry; tags and fusion partners are left off. A change or cut given only in a name is not applied to a line headed by its entry.
UniProt Q9Y603: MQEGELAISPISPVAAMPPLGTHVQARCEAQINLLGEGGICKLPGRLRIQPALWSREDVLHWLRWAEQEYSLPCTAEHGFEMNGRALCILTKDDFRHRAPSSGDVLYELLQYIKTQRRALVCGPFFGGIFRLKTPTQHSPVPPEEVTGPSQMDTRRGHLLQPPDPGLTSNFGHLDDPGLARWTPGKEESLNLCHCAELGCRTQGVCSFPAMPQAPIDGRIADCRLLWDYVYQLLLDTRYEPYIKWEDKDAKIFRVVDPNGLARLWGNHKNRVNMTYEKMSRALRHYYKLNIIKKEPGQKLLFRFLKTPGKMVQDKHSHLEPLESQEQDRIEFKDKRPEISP
UniProt P41212: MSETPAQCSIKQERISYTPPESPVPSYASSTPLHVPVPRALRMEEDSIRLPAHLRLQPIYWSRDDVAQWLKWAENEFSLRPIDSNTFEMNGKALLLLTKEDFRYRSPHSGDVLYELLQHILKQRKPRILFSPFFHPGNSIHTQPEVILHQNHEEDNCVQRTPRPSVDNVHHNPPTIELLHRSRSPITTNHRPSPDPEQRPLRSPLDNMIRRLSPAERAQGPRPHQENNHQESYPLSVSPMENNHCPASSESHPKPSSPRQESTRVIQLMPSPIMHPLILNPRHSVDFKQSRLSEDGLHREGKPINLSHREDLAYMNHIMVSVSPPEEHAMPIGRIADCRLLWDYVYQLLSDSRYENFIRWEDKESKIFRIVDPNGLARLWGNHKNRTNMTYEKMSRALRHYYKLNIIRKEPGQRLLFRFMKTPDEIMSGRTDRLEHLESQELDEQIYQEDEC

Experiments:
Test in all cases: DAPPL (digital affinity profiling via proximity ligation, sequencing)
Conditions in all cases: 10 mM Tris-HCl pH 7.5, 50 mM NaCl, 1 mM DTT, 4% glycerol, room temperature, 30 min; GST-TFs on glutathione beads, 16-mer random dsDNA library, 0.1% …; high values mean tight binding; double strand, one strand shown; scale: fold enrichment (6-mer frequency, TF over GST control)
ELF3 = biological target: T1, ELF3 (UniProt P78545)
T1 sequence: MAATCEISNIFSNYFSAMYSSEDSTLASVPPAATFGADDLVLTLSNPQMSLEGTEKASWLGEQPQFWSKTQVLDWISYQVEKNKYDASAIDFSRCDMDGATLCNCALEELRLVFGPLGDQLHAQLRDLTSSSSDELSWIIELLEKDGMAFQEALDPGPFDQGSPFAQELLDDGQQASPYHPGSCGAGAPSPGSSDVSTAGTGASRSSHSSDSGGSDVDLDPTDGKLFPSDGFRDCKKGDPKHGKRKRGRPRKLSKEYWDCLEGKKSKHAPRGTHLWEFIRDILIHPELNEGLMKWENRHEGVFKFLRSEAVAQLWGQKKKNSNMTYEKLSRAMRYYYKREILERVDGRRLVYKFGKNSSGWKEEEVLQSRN

ETV7 = ETV7 (UniProt Q9Y603)
ETV6 = ETV6 (UniProt P41212)

Row | Sequence | binding signal (ELF3) | binding signal (ETV7) | binding signal (ETV6)
1 | AGAACG | 0.462 | 0.441 | 0.483
2 | GGGACG | 0.505 | 0.495 | 0.47
3 | CGGGGA | 0.379 | 0.504 | 0.403
4 | GGGTCA | 0.745 | 0.734 | 0.73
5 | GGAAAG | 0.95 | 1.06 | 1.06
6 | GTTGTG | 0.741 | 0.948 | 0.951
7 | GGCGTC | 0.845 | 0.747 | 0.774
8 | GACTAG | 0.821 | 0.84 | 0.667
9 | AGTCGA | 0.38 | 0.487 | 0.366
10 | GACTGT | 0.422 | 0.373 | 0.432
11 | CAAGCG | 0.903 | 0.887 | 0.875
12 | CTGTGA | 0.515 | 0.546 | 0.449
13 | TGGGCC | 0.803 | 0.937 | 0.95
14 | GGACGG | 0.452 | 0.534 | 0.512
15 | GGACTA | 0.998 | 0.868 | 0.813
16 | AAAGTG | 0.861 | 1.04 | 0.875
17 | ACAGTG | 0.541 | 0.555 | 0.484
18 | AGGTCG | 0.478 | 0.562 | 0.532
19 | GATTGT | 0.717 | 0.894 | 0.83
20 | GGTGAT | 0.759 | 0.719 | 0.796

Row | Sequence | binding signal (ELF3) | binding signal (ETV7) | binding signal (ETV6)
21 | GTCGCT | 0.746 | 0.742 | 0.793
22 | GACGAA | 0.866 | 0.906 | 0.813
23 | GGTTCG | 0.879 | 0.785 | 0.775
24 | AGCCGA | 0.833 | 0.909 | 0.774
25 | ACGGAC | 0.893 | 0.928 | 0.86
26 | TCGGGT | 0.548 | 0.641 | 0.597
27 | TCGGTT | 0.825 | 0.857 | 0.949
28 | GTGTAT | 0.954 | 0.844 | 0.876
29 | GGTGGG | 0.593 | 0.654 | 0.685
30 | CTCGGA | 0.905 | 0.774 | 0.844
31 | ACAGTC | 0.447 | 0.499 | 0.392
32 | CGGAGT | 0.287 | 0.387 | 0.319
33 | GACGGA | 0.588 | 0.519 | 0.54
34 | GAGCCT | 0.888 | 0.76 | 0.865
35 | CGCCGT | 0.92 | 0.842 | 0.976
36 | GCGAGC | 0.829 | 0.839 | 0.85
37 | GGCCAG | 0.466 | 0.493 | 0.475
38 | GGGACT | 0.762 | 0.731 | 0.67
39 | TGCGTG | 0.681 | 0.645 | 0.618
40 | GGTACG | 0.927 | 0.912 | 0.829

Row | Sequence | binding signal (ELF3) | binding signal (ETV7) | binding signal (ETV6)
41 | AGAGGA | 0.779 | 0.672 | 0.701
42 | CCTAGT | 1.04 | 0.973 | 0.867
43 | AAGAGG | 0.979 | 0.891 | 0.895
44 | GAGGCG | 0.411 | 0.512 | 0.372
45 | AGAGTG | 0.61 | 0.801 | 0.641
46 | TGGAGC | 0.626 | 0.578 | 0.637
47 | TGAGGG | 0.719 | 0.63 | 0.652
48 | GTGGGC | 0.538 | 0.739 | 0.825
49 | GCGCAG | 0.746 | 0.878 | 0.859
50 | GTAGTC | 0.74 | 0.766 | 0.625
51 | GGTAGA | 0.717 | 0.667 | 0.589
52 | GGGTTA | 0.864 | 0.815 | 0.781
53 | CAGGCA | 0.76 | 0.825 | 0.759
54 | AGGGGA | 0.646 | 0.59 | 0.637
55 | AAGTCG | 0.471 | 0.542 | 0.463
56 | GATAGA | 0.686 | 0.894 | 0.744
57 | CCTGTC | 0.989 | 1.03 | 0.928
58 | GCAGAC | 0.753 | 0.761 | 0.78
59 | CAGCGT | 0.761 | 0.771 | 0.739
60 | CGCGAG | 0.448 | 0.625 | 0.486

Complete entries, quoted from the list.
AGGTCG as listed: binding signal (ELF3): 0.478; binding signal (ETV7): 0.562; binding signal (ETV6): 0.532
GCGAGC as listed: binding signal (ELF3): 0.829; binding signal (ETV7): 0.839; binding signal (ETV6): 0.85
CGCCGT as listed: binding signal (ELF3): 0.92; binding signal (ETV7): 0.842; binding signal (ETV6): 0.976
TGAGGG as listed: binding signal (ELF3): 0.719; binding signal (ETV7): 0.63; binding signal (ETV6): 0.652
